Measured data: PubChem BioAssay AID1259254 (NCATS, 2017)
Shown is one part, drawn at random, of about 59,000 reagents. About 1,550 of all reagents (2.6%) count as active. 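G2 share is only a proxy for re-replication; each gene was hit by three separate siRNAs, and active genes were retested.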 Not all columns of the deposit are shown. Not given: the amount of reagent.

Assay: 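Genome-wide screen for genes that prevent DNA re-replication in cancer cells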 (primary screen)
Cell system: human HCT116 colorectal cancer cells
Reagent: single siRNA against human genes
Time to read-out: 3 days
Read-out: 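Nuclei stained with Hoechst and imaged; cell-cycle phase assigned by DNA content; G2 share scaled per plate, non-targeting siRNA 0%, GMNN siRNA 100%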
Scale: G2 robust z-score: higher = more G2 cells, more excess DNA replication
Call rule: 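An siRNA counts as active if its G2 robust z-score lies at least 5 MADs above the screen median; here such calls match roughly 38% of GMNN control or more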

How did the screen score GRK1 [SID160715902]?
G2 robust z-score: 0.116; outcome: inactive

How did the screen score GRK1 [SID160715903]?
G2 robust z-score: -1.68; outcome: inactive

For GRK1 [SID160715904], what was measured?
G2 robust z-score: -0.987; outcome: inactive

What is on record for CDH8 [SID160740544]?
G2 robust z-score: 1.27; outcome: inactive

What is on record for CDH8 [SID160740555]?
G2 robust z-score: 8.49; outcome: active

With CDH8 [SID160740565], how do the results read?
G2 robust z-score: 0.287; outcome: inactive

Which result is listed for OR4K5 [SID160748813]?
G2 robust z-score: 0.815; outcome: inactive

With OR4K5 [SID160748814], how do the results read?
G2 robust z-score: -0.553; outcome: inactive

With OR4K5 [SID160748815], what was measured?
G2 robust z-score: -0.736; outcome: inactive

Which result is listed for XIRP1 [SID160760186]?
G2 robust z-score: -0.131; outcome: inactive

How did the screen score XIRP1 [SID160760187]?
G2 robust z-score: 2.37; outcome: inactive

For XIRP1 [SID160760188], what does the deposit list?
G2 robust z-score: 0.329; outcome: inactive

No new results follow: entries from further up.
CDH8 [SID160740544] | G2 robust z-score: 1.27; outcome: inactive
CDH8 [SID160740555] | G2 robust z-score: 8.49; outcome: active
